# Experimental data taken from the supplement of paper PMC8728848.
# The list shows a part of the results.
# B1: Epa19 (Candida glabrata) (protein)
# chain: MGSSHHHHHHSSGLVPRGSHMASSKDPTRFPIGCSPQVLKTQPGLAVKLYSYGHPVPGCSYITYQYPDFPRSGYKKERKLADITGVNGKIDIDLKPNDPCRVLTGHLPSNYNYPDTLTYTNFTMILYGYFQPKVTGYHTFNLEADDLLFMNLGAGNAFDCCKAESTLDNFGNYQSYSLWGSDYAKANITVFLVSGVYYPIRLFYVNRDNNAVIDFSFTTEFDKEKVHDFTSYFFSASDGEQCPGSV
# Legend:
# Assay in all cases: glycan array binding signal (z-score within array); higher = stronger binding
# Conditions in all cases: glycan notation: IUPAC condensed, linker removed
# [1] = biological target: Fuc(a1-2)Gal(b1-4)GlcNAc(b1-3)Gal(b1-4)GlcNAc(b1-2)Man(a1-3)[Fuc(a1-2)Gal(b1-4)GlcNAc(b1-3)Gal(b1-4)GlcNAc(b1-2)Man(a1-6)]Man(b1-4)GlcNAc(b1-4)GlcNAc
# Summary of the method: (§1)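 Arrays were curated from the Consortium for Functional Glycomics database, 3228 in total, and kept only where the protein sequence was available. Binding is expressed as a within-array Z-score. This score was averaged across arrays of the same protein sequence at different concentrations or buffers and across linkers, and negative values can be read as non-binding.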
# [2] = biological target: Fuc(a1-2)Gal(b1-4)GlcNAc(b1-3)Gal(b1-4)GlcNAc(b1-3)Gal(b1-4)GlcNAc
# Summary of the method: as §1
# [3] = biological target: Fuc(a1-2)Gal(b1-4)GlcNAc(b1-3)GalNAc
# Summary of the method: as §1
# [4] = biological target: Fuc(a1-2)Gal(b1-4)GlcNAc(b1-3)[Fuc(a1-2)Gal(b1-4)GlcNAc(b1-6)]GalNAc
# Summary of the method: as §1
# [5] = biological target: Fuc(a1-2)Gal(b1-4)GlcNAc(b1-3)[Fuc(a1-3)[Gal(b1-4)]GlcNAc(b1-6)]Gal(b1-4)Glc
# Summary of the method: as §1
# [6] = biological target: Fuc(a1-2)Gal(b1-4)GlcNAc(b1-6)GalNAc
# Summary of the method: as §1
# [7] = biological target: Fuc(a1-2)Gal(b1-4)GlcNAc6S
# Summary of the method: as §1
# [8] = biological target: Fuc(a1-2)Gal(b1-4)[Fuc(a1-3)]GlcNAc
# Summary of the method: as §1
# [9] = biological target: Fuc(a1-2)Gal(b1-4)[Fuc(a1-3)]GlcNAc(b1-2)Man(a1-3)[Fuc(a1-2)Gal(b1-4)[Fuc(a1-3)]GlcNAc(b1-2)Man(a1-6)]Man(b1-4)GlcNAc(b1-4)[Fuc(a1-6)]GlcNAc
# Summary of the method: as §1
# [10] = biological target: Fuc(a1-2)Gal(b1-4)[Fuc(a1-3)]GlcNAc(b1-2)[Fuc(a1-2)Gal(b1-4)[Fuc(a1-3)]GlcNAc(b1-4)]Man(a1-3)[Fuc(a1-2)Gal(b1-4)[Fuc(a1-3)]GlcNAc(b1-2)Man(a1-6)]Man(b1-4)GlcNAc(b1-4)GlcNAc
# Summary of the method: as §1
# [11] = biological target: Fuc(a1-2)Gal(b1-4)[Fuc(a1-3)]GlcNAc(b1-3)Gal(b1-4)[Fuc(a1-3)]GlcNAc
# Summary of the method: as §1
# [12] = biological target: Fuc(a1-2)Gal(b1-4)[Fuc(a1-3)]GlcNAc(b1-3)Gal(b1-4)[Fuc(a1-3)]GlcNAc(b1-3)Gal(b1-4)[Fuc(a1-3)]GlcNAc
# Summary of the method: as §1
# [13] = biological target: Fuc(a1-2)Gal(b1-4)[Fuc(a1-3)]GlcNAc(b1-3)GalNAc
# Summary of the method: as §1
# [14] = biological target: Fuc(a1-2)Gal(b1-4)[Fuc(a1-3)]GlcNAc(b1-3)[Neu5Ac(a2-6)Gal(b1-4)GlcNAc(b1-6)]Gal(b1-4)Glc
# Summary of the method: as §1
# [15] = biological target: Fuc(a1-2)Gal3S(b1-4)GlcNAc
# Summary of the method: as §1
# [16] = biological target: Fuc(a1-2)Gal6S(b1-3)GlcNAc
# Summary of the method: as §1
# [17] = biological target: Fuc(a1-2)Gal6S(b1-3)GlcNAc6S
# Summary of the method: as §1
# Fuc(a1-2)Gal6S(b1-4)Glc = biological target: Fuc(a1-2)Gal6S(b1-4)Glc
# Summary of the method: as §1
# [18] = biological target: Fuc(a1-2)Gal6S(b1-4)Glc6S
# Summary of the method: as §1
# Fuc(a1-2)[Gal(a1-3)]Gal = biological target: Fuc(a1-2)[Gal(a1-3)]Gal
# Summary of the method: as §1
# [19] = biological target: Fuc(a1-2)[Gal(a1-3)]Gal(b1-3)GalNAc
# Summary of the method: as §1
# [20] = biological target: Fuc(a1-2)[Gal(a1-3)]Gal(b1-3)GalNAc(b1-3)Gal(a1-4)Gal(b1-4)Glc
# Summary of the method: as §1
# [21] = biological target: Fuc(a1-2)[Gal(a1-3)]Gal(b1-3)GlcNAc
# Summary of the method: as §1
# [22] = biological target: Fuc(a1-2)[Gal(a1-3)]Gal(b1-3)GlcNAc(b1-2)Man(a1-3)[Fuc(a1-2)[Gal(a1-3)]Gal(b1-3)GlcNAc(b1-2)Man(a1-6)]Man(b1-4)GlcNAc(b1-4)GlcNAc
# Summary of the method: as §1
# [23] = biological target: Fuc(a1-2)[Gal(a1-3)]Gal(b1-3)GlcNAc(b1-2)Man(a1-3)[Fuc(a1-2)[Gal(a1-3)]Gal(b1-3)GlcNAc(b1-2)Man(a1-6)]Man(b1-4)GlcNAc(b1-4)[Fuc(a1-6)]GlcNAc
# Summary of the method: as §1
# [24] = biological target: Fuc(a1-2)[Gal(a1-3)]Gal(b1-3)GlcNAc(b1-3)GalNAc
# Summary of the method: as §1
# [25] = biological target: Fuc(a1-2)[Gal(a1-3)]Gal(b1-3)GlcNAc(b1-6)GalNAc
# Summary of the method: as §1
# [26] = biological target: Fuc(a1-2)[Gal(a1-3)]Gal(b1-4)Glc
# Summary of the method: as §1
# [27] = biological target: Fuc(a1-2)[Gal(a1-3)]Gal(b1-4)GlcNAc
# Summary of the method: as §1
# [28] = biological target: Fuc(a1-2)[Gal(a1-3)]Gal(b1-4)GlcNAc(b1-2)Man
# Summary of the method: as §1
# [29] = biological target: Fuc(a1-2)[Gal(a1-3)]Gal(b1-4)GlcNAc(b1-2)Man(a1-3)[Fuc(a1-2)[Gal(a1-3)]Gal(b1-4)GlcNAc(b1-2)Man(a1-6)]Man(b1-4)GlcNAc(b1-4)GlcNAc
# Summary of the method: as §1
# [30] = biological target: Fuc(a1-2)[Gal(a1-3)]Gal(b1-4)GlcNAc(b1-2)Man(a1-3)[Fuc(a1-2)[Gal(a1-3)]Gal(b1-4)GlcNAc(b1-2)Man(a1-6)]Man(b1-4)GlcNAc(b1-4)[Fuc(a1-6)]GlcNAc
# Summary of the method: as §1
# [31] = biological target: Fuc(a1-2)[Gal(a1-3)]Gal(b1-4)GlcNAc(b1-3)GalNAc
# Summary of the method: as §1
# [32] = biological target: Fuc(a1-2)[Gal(a1-3)]Gal(b1-4)GlcNAc(b1-3)[Fuc(a1-2)[Gal(a1-3)]Gal(b1-4)GlcNAc(b1-6)]GalNAc
# Summary of the method: as §1
# [33] = biological target: Fuc(a1-2)[Gal(a1-3)]Gal(b1-4)GlcNAc(b1-6)GalNAc
# Summary of the method: as §1
# [34] = biological target: Fuc(a1-2)[Gal(a1-3)]Gal(b1-4)[Fuc(a1-3)]Glc
# Summary of the method: as §1
# [35] = biological target: Fuc(a1-2)[Gal(a1-3)]Gal(b1-4)[Fuc(a1-3)]GlcNAc
# Summary of the method: as §1
binder,measurement,setting,value
B1,glycan array binding signal (z-score),[1],-1.01
same,glycan array binding signal (z-score),[2],-0.05
same,glycan array binding signal (z-score),[3],0.004
same,glycan array binding signal (z-score),[4],-0.055
same,glycan array binding signal (z-score),[5],0.603
same,glycan array binding signal (z-score),[6],1.5
same,glycan array binding signal (z-score),[7],-0.293
same,glycan array binding signal (z-score),[8],-0.107
same,glycan array binding signal (z-score),[9],0.201
same,glycan array binding signal (z-score),[10],1.36
same,glycan array binding signal (z-score),[11],-0.047
same,glycan array binding signal (z-score),[12],-0.669
same,glycan array binding signal (z-score),[13],1
same,glycan array binding signal (z-score),[14],-0.518
same,glycan array binding signal (z-score),[15],-0.533
same,glycan array binding signal (z-score),[16],0.192
same,glycan array binding signal (z-score),[17],0.418
same,glycan array binding signal (z-score),Fuc(a1-2)Gal6S(b1-4)Glc,-0.51
same,glycan array binding signal (z-score),[18],-0.863
same,glycan array binding signal (z-score),Fuc(a1-2)[Gal(a1-3)]Gal,-0.947
same,glycan array binding signal (z-score),[19],-0.056
same,glycan array binding signal (z-score),[20],-0.326
same,glycan array binding signal (z-score),[21],-0.022
same,glycan array binding signal (z-score),[22],1.76
same,glycan array binding signal (z-score),[23],-0.248
same,glycan array binding signal (z-score),[24],-0.09
same,glycan array binding signal (z-score),[25],-0.282
same,glycan array binding signal (z-score),[26],-0.136
same,glycan array binding signal (z-score),[27],-0.677
same,glycan array binding signal (z-score),[28],0.045
same,glycan array binding signal (z-score),[29],-0.602
same,glycan array binding signal (z-score),[30],-0.419
same,glycan array binding signal (z-score),[31],-0.163
same,glycan array binding signal (z-score),[32],0.438
same,glycan array binding signal (z-score),[33],1.58
same,glycan array binding signal (z-score),[34],0.176
same,glycan array binding signal (z-score),[35],0.507

# As a short view, part of the list above.
binder,measurement,setting,value
B1,glycan array binding signal (z-score),[16],0.192
same,glycan array binding signal (z-score),[17],0.418
